Some entries of the source have several records that differ or are many. This list holds those alone. An entry can have further records. The records of an entry differ for a reason that is not stated; dose, time, organism, isomer or construct need not be as stated for each record.
Molecular target: PPAR alpha (Rattus norvegicus, UniProt P37230)
Assay: PPAR alpha transactivation assay in COS-1 cells
Format: cell-based
Details: at 1 mM, versus vehicle, mean±SD n=3

Chains of the proteins cited; added tags and fusions are not shown.
UniProt P37230, whole entry: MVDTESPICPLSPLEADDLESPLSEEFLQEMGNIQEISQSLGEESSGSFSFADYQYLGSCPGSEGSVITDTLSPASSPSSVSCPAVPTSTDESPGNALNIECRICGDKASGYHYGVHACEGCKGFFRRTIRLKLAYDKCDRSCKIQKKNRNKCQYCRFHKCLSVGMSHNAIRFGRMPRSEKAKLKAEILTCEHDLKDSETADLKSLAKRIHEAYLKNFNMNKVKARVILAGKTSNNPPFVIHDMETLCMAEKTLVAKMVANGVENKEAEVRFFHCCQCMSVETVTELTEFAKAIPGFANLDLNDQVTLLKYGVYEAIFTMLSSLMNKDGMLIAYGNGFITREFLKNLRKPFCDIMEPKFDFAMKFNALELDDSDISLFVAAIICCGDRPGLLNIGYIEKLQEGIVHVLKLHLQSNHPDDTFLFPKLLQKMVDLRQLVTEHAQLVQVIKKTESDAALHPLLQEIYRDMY

Compound: O=C(O)C(F)(F)C(F)(F)F [PFPA, Perfluropropionic acid]
- Fold activation of PPAR alpha: approximately 2 fold and 1.36 ± 0.51 fold

Source: patent publication US20060052451A1, “Method” (priority 2002, published 2006)
